Experimental data from patent US20230174617A1.
These are yes or no findings as the source states them, for the method shown. Some entries that bind do so weakly or less than the wild type. Where a sequence is shown, tags or fusion partners need not be part of it.

Biological target: T1, IL-10 receptor 1 (IL-10R1), IL-10R His-tag protein (UniProt Q13651)
T1 sequence (looked up): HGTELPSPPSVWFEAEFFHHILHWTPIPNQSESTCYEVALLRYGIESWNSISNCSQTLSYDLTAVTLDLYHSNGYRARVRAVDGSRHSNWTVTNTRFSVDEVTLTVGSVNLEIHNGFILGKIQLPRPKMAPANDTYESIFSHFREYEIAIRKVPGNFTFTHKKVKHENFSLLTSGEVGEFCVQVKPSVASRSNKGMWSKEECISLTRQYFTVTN
Assay: BLI, IL-10R His-tag protein on the amine sensor, fusion protein as analyte

- binding: binds
B1: PG-088m (NTIG-IL-10Vm) (Fc fusion)
chain: SHTQPLGVFLFPPKPKDQLMISRTPEVTCVVVDVSQEDPEVQFNWYVDGVEVHNAKTKPREEQFNSTYRVVSVLTVLHQDWLNGKEYKCKVSNKGLPSSIEKTISKAKGQPREPQVYTLPPSQEEMTKNQVSLTCLVKGFYPSDIAVEWESNGQPENNYKTTPPVLDSDGSFFLYSRLTVDKSRWQEGNVFSCSVLHEALHNHYTQKSLSLSLGAAGSGGGGGSGGGGSGGGGSSPGQGTQSENSCTHFPGNLPNMLRDLRDAFSRVKTFFQMKDQLDNLLLKESLLEDFKGYLGCQALSEMIQFYLEEVMPQAENQDPDAKAHVNSLGENLKTLRLRLRRCHRFLPCENGGSGGSGGSKSKAVEQVKNAFNKLQEKGIYKAMSEFDIFINYIEAYMTMKIRN
